Results from the supplement of paper PMC10849652.
This is one part of the list.

Sequences of proteins named here, by UniProt entry; tags and fusion partners are left off. A change or cut given only in a name is not applied to a line headed by its entry.
UniProt P17987, whole entry, looked up: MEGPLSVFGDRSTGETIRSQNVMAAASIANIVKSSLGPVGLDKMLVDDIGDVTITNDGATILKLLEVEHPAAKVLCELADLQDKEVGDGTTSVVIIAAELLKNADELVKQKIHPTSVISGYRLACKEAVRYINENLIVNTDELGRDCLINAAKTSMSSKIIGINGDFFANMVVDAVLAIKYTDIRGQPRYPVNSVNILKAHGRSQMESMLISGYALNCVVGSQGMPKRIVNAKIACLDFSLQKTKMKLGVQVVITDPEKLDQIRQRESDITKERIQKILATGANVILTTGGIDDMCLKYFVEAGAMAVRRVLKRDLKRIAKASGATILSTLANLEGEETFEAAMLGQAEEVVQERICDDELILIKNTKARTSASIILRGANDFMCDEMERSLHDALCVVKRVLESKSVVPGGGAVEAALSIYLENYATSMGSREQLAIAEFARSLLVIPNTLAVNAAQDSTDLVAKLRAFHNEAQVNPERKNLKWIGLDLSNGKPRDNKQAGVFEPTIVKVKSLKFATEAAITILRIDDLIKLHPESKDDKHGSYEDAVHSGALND
UniProt Q9BTW9: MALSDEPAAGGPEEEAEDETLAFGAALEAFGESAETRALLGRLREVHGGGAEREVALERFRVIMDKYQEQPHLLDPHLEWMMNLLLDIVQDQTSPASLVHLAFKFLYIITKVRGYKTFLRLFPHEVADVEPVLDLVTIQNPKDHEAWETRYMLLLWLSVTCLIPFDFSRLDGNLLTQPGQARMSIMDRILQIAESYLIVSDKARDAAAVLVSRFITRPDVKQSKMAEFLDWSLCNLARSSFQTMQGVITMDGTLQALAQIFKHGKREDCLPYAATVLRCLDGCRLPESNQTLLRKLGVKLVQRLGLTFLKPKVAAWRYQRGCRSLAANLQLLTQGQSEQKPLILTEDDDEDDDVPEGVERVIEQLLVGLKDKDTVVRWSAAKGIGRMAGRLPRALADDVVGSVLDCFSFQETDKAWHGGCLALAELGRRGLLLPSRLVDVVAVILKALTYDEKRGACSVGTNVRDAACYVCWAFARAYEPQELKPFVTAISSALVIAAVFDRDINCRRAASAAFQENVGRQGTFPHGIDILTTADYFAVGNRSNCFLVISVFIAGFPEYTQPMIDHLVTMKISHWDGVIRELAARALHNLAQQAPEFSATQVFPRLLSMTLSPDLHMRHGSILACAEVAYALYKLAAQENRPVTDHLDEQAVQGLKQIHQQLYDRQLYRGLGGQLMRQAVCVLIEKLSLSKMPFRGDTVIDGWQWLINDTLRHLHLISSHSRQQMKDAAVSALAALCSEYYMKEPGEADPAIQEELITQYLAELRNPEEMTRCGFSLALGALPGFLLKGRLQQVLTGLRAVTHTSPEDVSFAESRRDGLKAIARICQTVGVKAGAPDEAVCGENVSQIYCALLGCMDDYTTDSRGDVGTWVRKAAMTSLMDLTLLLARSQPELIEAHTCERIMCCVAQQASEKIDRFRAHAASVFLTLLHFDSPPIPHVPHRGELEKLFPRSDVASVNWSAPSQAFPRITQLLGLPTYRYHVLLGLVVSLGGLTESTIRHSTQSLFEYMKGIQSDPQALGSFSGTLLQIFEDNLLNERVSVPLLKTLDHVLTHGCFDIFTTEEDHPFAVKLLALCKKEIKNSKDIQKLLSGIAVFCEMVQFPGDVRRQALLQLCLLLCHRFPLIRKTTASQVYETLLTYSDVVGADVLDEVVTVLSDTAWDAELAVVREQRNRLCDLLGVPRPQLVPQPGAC
UniProt Q9NYB0: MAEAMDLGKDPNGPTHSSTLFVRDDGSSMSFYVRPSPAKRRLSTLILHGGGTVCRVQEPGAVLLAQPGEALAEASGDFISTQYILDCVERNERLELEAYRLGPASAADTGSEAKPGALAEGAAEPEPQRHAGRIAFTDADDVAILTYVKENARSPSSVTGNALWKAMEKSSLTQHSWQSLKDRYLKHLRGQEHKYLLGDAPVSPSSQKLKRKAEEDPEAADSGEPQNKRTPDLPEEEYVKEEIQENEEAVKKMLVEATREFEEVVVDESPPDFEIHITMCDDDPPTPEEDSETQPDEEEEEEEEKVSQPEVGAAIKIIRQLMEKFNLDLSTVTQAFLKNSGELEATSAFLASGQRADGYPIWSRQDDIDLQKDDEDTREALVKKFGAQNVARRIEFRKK
UniProt Q9UHD2: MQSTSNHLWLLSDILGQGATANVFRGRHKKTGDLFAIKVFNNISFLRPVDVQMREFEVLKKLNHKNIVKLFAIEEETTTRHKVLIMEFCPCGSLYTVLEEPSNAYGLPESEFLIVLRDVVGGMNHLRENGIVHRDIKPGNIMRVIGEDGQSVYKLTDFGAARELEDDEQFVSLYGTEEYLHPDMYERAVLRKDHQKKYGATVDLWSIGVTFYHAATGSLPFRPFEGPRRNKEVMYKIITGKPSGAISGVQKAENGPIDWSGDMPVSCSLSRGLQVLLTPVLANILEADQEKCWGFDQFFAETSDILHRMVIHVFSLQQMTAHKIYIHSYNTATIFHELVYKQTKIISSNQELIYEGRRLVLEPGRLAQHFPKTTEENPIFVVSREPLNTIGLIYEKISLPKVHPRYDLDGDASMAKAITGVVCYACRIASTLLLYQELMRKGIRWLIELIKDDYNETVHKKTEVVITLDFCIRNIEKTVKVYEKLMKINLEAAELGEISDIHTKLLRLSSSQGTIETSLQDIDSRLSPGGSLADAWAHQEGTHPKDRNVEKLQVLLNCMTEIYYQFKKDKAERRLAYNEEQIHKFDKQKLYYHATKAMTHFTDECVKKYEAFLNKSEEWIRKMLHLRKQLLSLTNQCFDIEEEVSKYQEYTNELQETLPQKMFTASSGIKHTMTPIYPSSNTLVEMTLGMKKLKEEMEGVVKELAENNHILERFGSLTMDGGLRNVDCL
UniProt Q15554: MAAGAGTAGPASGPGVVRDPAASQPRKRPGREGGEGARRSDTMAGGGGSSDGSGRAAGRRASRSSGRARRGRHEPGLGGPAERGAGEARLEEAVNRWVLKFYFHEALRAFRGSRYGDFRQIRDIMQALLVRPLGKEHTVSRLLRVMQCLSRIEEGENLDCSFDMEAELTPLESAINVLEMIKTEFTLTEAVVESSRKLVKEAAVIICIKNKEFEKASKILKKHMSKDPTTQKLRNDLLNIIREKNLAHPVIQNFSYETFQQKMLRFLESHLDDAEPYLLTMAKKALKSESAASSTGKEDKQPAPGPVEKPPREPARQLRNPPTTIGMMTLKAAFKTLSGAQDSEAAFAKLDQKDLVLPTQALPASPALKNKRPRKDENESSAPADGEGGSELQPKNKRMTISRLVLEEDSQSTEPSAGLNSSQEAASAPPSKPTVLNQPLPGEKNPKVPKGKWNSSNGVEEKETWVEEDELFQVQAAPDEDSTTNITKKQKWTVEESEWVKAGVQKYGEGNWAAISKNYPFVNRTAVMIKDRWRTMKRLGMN
UniProt Q13395: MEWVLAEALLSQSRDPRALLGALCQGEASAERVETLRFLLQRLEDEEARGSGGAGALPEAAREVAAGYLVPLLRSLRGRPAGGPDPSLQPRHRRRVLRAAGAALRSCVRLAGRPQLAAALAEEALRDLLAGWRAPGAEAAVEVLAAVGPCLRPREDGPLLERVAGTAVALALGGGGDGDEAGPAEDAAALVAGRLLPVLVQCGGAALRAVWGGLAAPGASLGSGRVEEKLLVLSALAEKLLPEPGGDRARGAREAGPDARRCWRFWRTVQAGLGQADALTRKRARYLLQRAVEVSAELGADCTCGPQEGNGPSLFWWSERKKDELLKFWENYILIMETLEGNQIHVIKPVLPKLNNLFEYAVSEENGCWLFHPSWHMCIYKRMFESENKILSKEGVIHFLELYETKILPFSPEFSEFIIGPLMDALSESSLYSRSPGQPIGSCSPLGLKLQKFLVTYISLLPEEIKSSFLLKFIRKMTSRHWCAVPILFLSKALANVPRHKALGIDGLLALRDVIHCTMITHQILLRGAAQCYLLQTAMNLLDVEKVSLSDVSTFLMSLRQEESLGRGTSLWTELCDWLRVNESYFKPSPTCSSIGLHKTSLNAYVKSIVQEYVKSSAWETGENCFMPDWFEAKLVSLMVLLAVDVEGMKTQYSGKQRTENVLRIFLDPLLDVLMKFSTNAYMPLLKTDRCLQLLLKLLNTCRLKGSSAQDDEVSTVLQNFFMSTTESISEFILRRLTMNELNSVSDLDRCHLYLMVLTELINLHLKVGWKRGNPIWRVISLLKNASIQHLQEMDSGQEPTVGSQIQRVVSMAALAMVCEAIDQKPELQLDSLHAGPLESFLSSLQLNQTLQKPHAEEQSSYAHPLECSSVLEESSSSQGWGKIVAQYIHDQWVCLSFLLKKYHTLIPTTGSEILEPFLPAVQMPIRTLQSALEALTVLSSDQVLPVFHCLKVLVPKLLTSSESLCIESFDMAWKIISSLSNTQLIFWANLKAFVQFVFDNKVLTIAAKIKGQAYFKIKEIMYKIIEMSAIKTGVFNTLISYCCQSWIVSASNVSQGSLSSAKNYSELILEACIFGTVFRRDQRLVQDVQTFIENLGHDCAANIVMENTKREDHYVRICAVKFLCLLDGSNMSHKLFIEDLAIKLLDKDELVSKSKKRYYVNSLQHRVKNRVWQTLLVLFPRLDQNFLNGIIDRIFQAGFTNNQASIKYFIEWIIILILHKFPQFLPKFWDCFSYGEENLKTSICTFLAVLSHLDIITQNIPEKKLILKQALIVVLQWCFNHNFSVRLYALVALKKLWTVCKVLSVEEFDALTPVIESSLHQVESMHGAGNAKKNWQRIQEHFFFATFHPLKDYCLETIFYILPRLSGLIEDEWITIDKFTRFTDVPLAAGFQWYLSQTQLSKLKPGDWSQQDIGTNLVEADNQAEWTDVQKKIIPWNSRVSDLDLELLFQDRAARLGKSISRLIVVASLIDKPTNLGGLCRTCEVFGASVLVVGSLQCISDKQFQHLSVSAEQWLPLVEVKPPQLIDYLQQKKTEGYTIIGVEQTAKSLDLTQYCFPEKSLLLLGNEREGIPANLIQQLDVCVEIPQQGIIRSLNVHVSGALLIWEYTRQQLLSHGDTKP
UniProt Q9UP52: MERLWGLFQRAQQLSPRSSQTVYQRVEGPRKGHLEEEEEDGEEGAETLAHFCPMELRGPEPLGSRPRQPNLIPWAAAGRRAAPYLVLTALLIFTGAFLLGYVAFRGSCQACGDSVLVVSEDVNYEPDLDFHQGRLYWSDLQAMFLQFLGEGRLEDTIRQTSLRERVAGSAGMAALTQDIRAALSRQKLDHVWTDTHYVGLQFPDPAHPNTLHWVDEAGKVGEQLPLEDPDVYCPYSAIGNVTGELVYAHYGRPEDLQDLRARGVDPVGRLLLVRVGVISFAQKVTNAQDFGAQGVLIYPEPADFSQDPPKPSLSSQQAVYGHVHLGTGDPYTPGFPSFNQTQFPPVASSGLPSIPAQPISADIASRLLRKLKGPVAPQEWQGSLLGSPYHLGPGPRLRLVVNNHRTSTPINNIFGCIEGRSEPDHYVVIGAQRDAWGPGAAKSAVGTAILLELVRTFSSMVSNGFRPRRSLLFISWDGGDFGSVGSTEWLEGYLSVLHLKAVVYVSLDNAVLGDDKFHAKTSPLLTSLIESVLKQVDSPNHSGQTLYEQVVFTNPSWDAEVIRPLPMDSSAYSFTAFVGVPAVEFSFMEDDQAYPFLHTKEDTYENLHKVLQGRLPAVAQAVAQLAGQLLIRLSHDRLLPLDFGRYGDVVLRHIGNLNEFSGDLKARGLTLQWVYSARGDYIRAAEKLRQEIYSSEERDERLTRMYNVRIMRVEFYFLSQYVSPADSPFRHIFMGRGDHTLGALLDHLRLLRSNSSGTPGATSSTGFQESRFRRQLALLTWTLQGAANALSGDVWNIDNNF
UniProt Q15545, whole entry, looked up: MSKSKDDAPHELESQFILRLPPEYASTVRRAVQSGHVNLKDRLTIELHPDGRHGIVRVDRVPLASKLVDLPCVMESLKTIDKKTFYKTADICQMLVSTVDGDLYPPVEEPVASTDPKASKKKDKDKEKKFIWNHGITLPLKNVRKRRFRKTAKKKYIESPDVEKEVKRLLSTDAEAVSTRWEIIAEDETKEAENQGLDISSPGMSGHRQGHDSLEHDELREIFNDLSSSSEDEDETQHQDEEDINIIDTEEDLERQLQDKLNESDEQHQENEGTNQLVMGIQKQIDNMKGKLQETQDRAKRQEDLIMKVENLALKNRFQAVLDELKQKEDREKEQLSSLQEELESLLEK
UniProt Q9H5Q4: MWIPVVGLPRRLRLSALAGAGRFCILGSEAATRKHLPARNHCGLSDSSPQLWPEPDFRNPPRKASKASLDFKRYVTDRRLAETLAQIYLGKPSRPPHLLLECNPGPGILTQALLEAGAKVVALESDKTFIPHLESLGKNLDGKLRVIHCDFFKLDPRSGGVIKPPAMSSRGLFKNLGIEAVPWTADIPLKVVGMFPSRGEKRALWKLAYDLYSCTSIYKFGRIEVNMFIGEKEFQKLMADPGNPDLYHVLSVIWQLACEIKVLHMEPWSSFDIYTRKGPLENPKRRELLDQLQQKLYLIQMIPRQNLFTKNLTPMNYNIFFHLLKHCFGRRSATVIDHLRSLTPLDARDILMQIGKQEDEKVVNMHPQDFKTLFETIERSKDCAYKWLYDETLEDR

Columns and labels:
Test in all cases: log2 fold change, soluble protein after heating vs DMSO (PISA); higher = thermal stabilisation; K562 lysate, 10 uM; active = over 0.2 and 3.5 SD of the protein, either way, in both replicates (recomputed)
[1] = compound: C=CC(=O)N1CCC[C@@H](n2nc(-c3ccc(Oc4ccccc4)cc3)c3c(N)ncnc32)C1 [ibrutinib]
Summary of the method: (§1)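 To prepare the extract, K562 pellets were dounce-homogenised in PBS pH 7.4 with 1 mM MgCl2, giving crude material at 1 mg/mL protein. This was treated with 10 μM compound for 30 min, then heated in aliquots for 3 min over 48°C-58°C before pooling and addition of NP-40 to 0.5% at 4°C. Centrifugation at 21,000xg for 90 min left soluble protein in the supernatant, which TMTpro 16plex LC-MS/MS quantified with equalised channel sums. Results are log-two fold changes in thermal stability compared with solvent controls, from duplicates.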

[2] = compound: CC(=O)c1cnc2ccc(-c3cc(Cl)c(O)c(Cl)c3)nc2c1N[C@H]1CC[C@H](CN(C)C)CC1
Summary of the method: as §1

[3] = compound: CC(C)(C)Cn1c(N)nc2ccc(-c3[nH]c(C(C)(C)C)nc3-c3ccc(F)cc3)nc21 [ralimetinib]
Summary of the method: as §1

[4] = compound: CC(C)(O)CC(=O)NCCn1ccc2ncnc(Nc3ccc(Oc4cccc(C(F)(F)F)c4)c(Cl)c3)c21
Summary of the method: as §1

[5] = compound: CC(C)C1=C2N=C(C=C(N2N=C1)NCC3=CC=CC=C3)NCCCCCCN
Summary of the method: as §1

[6] = compound: CC1=C(C(CC(=O)N1)C2=CC=C(C=C2)C(F)(F)F)C(=O)NC3=C(C=C4C(=C3)C=NN4)F
Summary of the method: as §1

[7] = compound: CC1=C(C2=C(C=C1)C(=O)C3=CC=CC=C3N2CCCN)C
Summary of the method: as §1

[8] = compound: CC1=C(C=C(C=C1)NC(=O)C2=CC(=CC=C2)C(C)(C)C#N)NC3=CC4=C(C=C3)N=CN(C4=O)C
Summary of the method: as §1

[9] = compound: CC1=C(C=C(C=C1)NC(=O)C2=CC(=CC=C2)N(C)C)NC(=O)C3=CC=C(C=C3)O
Summary of the method: as §1

[10] = compound: CC1=CC=C(C=C1)SC2=C3C=C(SC3=CN=C2)C(=O)N
Summary of the method: as §1

[11] = compound: CCCS(=O)(=O)Nc1ccc(F)c(C(=O)c2c[nH]c3ncc(-c4ccc(Cl)cc4)cc23)c1F [vemurafenib]
Summary of the method: as §1

[12] = compound: CCCS(=O)(=O)Nc1ccc(F)c(C(=O)c2c[nH]c3ncc(Cl)cc23)c1F
Summary of the method: as §1

[13] = compound: CCN(CCCOc1ccc2c(Nc3cc(CC(=O)Nc4cccc(F)c4)[nH]n3)ncnc2c1)CCOP(=O)(O)O [barasertib]
Summary of the method: as §1

[14] = compound: CC[C@@H]1C(=O)N(C)c2cnc(Nc3ccc(C(=O)NC4CCN(C)CC4)cc3OC)nc2N1C1CCCC1
Summary of the method: as §1

[15] = compound: CC[C@@H]1C(=O)N(C)c2cnc(Nc3ccc(C(=O)N[C@H]4CC[C@H](N5CCN(CC6CC6)CC5)CC4)cc3OC)nc2N1C(C)C [volasertib]
Summary of the method: as §1

[16] = compound: CCn1c(C(=O)N(C2CC2)C2CC2)cc2c3c(ncn3C)c(Nc3cc(C)n(C)n3)nc21
Summary of the method: as §1

[17] = compound: CCn1cc(-c2ccnc3[nH]c(-c4cccc(CN(C)C)c4)cc23)c(-c2ccc(NC(=O)N(C)C)cc2)n1
Summary of the method: as §1

[18] = compound: CN1CCC(CNc2ccc3ncc(-c4cccc(OC(F)(F)F)c4)n3n2)CC1
Summary of the method: as §1

[19] = compound: CN1CCN(CCOc2cc(OC3CCOCC3)c3c(Nc4c(Cl)ccc5c4OCO5)ncnc3c2)CC1 [saracatinib]
Summary of the method: as §1

[20] = compound: CN1CCN(c2nc(C3=C(c4c[nH]c5ccccc45)C(=O)NC3=O)c3ccccc3n2)CC1 [sotrastaurin]
Summary of the method: as §1

Measured: log2 fold change

TCP1 (UniProt P17987)
inactive: [1] -0.024 | [2] -0.014 | [3] -0.01 | [4] 0.003 | [5] -0.006 | [6] -0.03 | [7] -0.004 | [8] 0.004 | [9] -0.022 | [10] 0.01 | [11] -0.018 | [12] -0.001 | [13] -0.04 | [14] -0.008 | [15] 0.014 | [16] -0.007 | [17] 0.015 | [18] 0.006 | [19] -0.01 | [20] -0.023

TBCD (UniProt Q9BTW9)
inactive: [1] 0.01 | [2] 0.014 | [3] 0.014 | [4] -0.025 | [5] 0.015 | [6] -0.018 | [7] 0.017 | [8] -0.014 | [9] -0.018 | [10] 0.008 | [11] 0.017 | [12] 0.013 | [13] 0.013 | [14] -0.076 | [15] -0.028 | [16] 0.004 | [17] -0.089 | [18] 0.027 | [19] 0.009 | [20] 0.001

TERF2IP (UniProt Q9NYB0)
active: [17] 0.269
inactive: [1] 0.02 | [2] -0.012 | [3] 0.025 | [4] -0.049 | [5] -0.047 | [6] 0.004 | [7] -0.004 | [8] -0.008 | [9] -0.005 | [10] 0.003 | [11] -0.009 | [12] -0.003 | [13] -0.006 | [14] 0.075 | [15] 0.022 | [16] -0.015 | [18] -0.152 | [19] -0.003 | [20] 0.008

TBK1 (UniProt Q9UHD2)
inactive: [1] -0.02 | [2] 0.159 | [3] -0.007 | [4] -0.035 | [5] 0.047 | [6] 0.015 | [7] -0.016 | [8] -0.034 | [9] 0.032 | [10] -0.013 | [11] 0.008 | [12] 0.002 | [13] -0.03 | [14] -0.058 | [15] -0.064 | [16] -0.021 | [17] 0.216 | [18] 0.079 | [19] -0.029 | [20] -0.045

TERF2 (UniProt Q15554)
inactive: [1] -0.068 | [2] 0.032 | [3] -0.036 | [4] -0.016 | [5] -0.008 | [6] -0.029 | [7] 0 | [8] -0.033 | [9] -0.004 | [10] -0.035 | [11] -0.009 | [12] 0.007 | [13] 0.003 | [14] -0.025 | [15] -0.052 | [16] 0.014 | [17] -0.087 | [18] -0.01 | [19] 0.031 | [20] 0.056

TBL3 (UniProt Q12788)
inactive: [1] -0.006 | [2] -0.016 | [3] 0.027 | [4] 0.001 | [5] 0.026 | [6] 0.013 | [7] -0.017 | [8] 0.027 | [9] 0.046 | [10] 0.008 | [11] 0.02 | [12] 0.003 | [13] 0.042 | [14] -0.018 | [15] -0.006 | [16] 0.004 | [17] -0.005 | [18] -0.012 | [19] 0.026 | [20] 0.009

TARBP1 (UniProt Q13395)
inactive: [1] -0.021 | [2] 0.036 | [3] 0.162 | [4] 0.03 | [5] -0.051 | [6] -0.027 | [7] -0.077 | [8] 0.002 | [9] 0.035 | [10] -0.036 | [11] 0.019 | [12] -0.004 | [13] 0.02 | [14] 0.025 | [15] -0.032 | [16] -0.047 | [17] -0.053 | [18] -0.034 | [19] -0.055 | [20] 0.038

TET1 (UniProt Q8NFU7)
inactive: [1] -0.011 | [2] -0.238 | [3] -0.157 | [4] -0.342 | [5] 0.101 | [6] -0.031 | [7] -0.173 | [8] 0.285 | [9] -0.037 | [10] -0.059 | [11] 0.257 | [12] -0.042 | [13] 0.061 | [14] 0.258 | [15] 0.094 | [16] -0.467 | [17] -0.701 | [18] 0.404 | [19] 0.104 | [20] -0.015

TCAF2 (UniProt A6NFQ2)
inactive: [1] 0.009 | [2] -0.009 | [3] 0.078 | [4] -0.017 | [5] 0.013 | [6] 0.022 | [7] 0.055 | [8] -0.005 | [9] -0.021 | [10] 0.063 | [11] 0.052 | [12] 0.041 | [13] -0.048 | [14] -0.027 | [15] -0.049 | [16] 0.045 | [17] 0.003 | [18] -0.05 | [19] 0.004 | [20] -0.017

TFDP1 (UniProt Q14186)
inactive: [1] 0.005 | [2] -0.014 | [3] -0.008 | [4] -0.044 | [5] 0.115 | [6] 0.015 | [7] -0.034 | [8] 0.019 | [9] -0.094 | [10] 0.006 | [11] 0.125 | [12] 0.011 | [13] 0.061 | [14] -0.01 | [15] -0.007 | [16] 0.055 | [17] 0.004 | [18] -0.043 | [19] 0.025 | [20] -0.017

TFR2 (UniProt Q9UP52)
inactive: [1] 0.031 | [2] 0.003 | [3] 0.003 | [4] -0.025 | [5] -0.038 | [6] 0.007 | [7] -0.018 | [8] -0.01 | [9] -0.015 | [10] -0.026 | [11] 0.003 | [12] 0.015 | [13] -0.035 | [14] 0.051 | [15] -0.002 | [16] 0.021 | [17] -0.017 | [18] 0.004 | [19] 0.014 | [20] 0.03

TBC1D24 (UniProt Q9ULP9)
inactive: [1] -0.044 | [2] -0.003 | [3] 0.02 | [4] 0.021 | [5] 0.002 | [6] -0.014 | [7] 0.03 | [8] 0.008 | [9] 0.081 | [10] 0.026 | [11] 0.048 | [12] 0.019 | [13] 0.002 | [14] -0.066 | [15] -0.079 | [16] -0.03 | [17] -0.057 | [18] -0.022 | [19] 0.032 | [20] 0.028

TAF7 (UniProt Q15545)
inactive: [1] 0.079 | [2] -0.004 | [3] 0.021 | [4] -0.054 | [5] 0.02 | [6] 0 | [7] -0.021 | [8] 0.038 | [9] -0.014 | [10] -0.027 | [11] -0.01 | [12] -0.033 | [13] -0.022 | [14] -0.031 | [15] 0.025 | [16] -0.025 | [17] 0.035 | [18] 0.048 | [19] 0.006 | [20] 0.017

TFB2M (UniProt Q9H5Q4)
inactive: [1] -0.049 | [2] 0.014 | [3] 0.032 | [4] -0.013 | [5] -0.038 | [6] 0.034 | [7] 0.048 | [8] 0.018 | [9] 0.008 | [10] 0.011 | [11] -0.021 | [12] 0.007 | [13] 0.013 | [14] -0.166 | [15] -0.024 | [16] 0.024 | [17] 0.017 | [18] -0.123 | [19] -0.005 | [20] -0.004

TDRKH (UniProt Q9Y2W6)
inactive: [1] -0.028 | [2] -0.023 | [3] 0.033 | [4] -0.027 | [5] -0.02 | [6] 0.003 | [7] -0.008 | [8] -0.006 | [9] -0.005 | [10] -0.035 | [11] 0.07 | [12] 0.055 | [13] 0.031 | [14] -0.195 | [15] -0.052 | [16] -0.003 | [17] -0.095 | [18] 0.058 | [19] -0.004 | [20] -0.039

TDP2 isoform 2 (UniProt O95551)
inactive: [1] -0.01 | [2] 0.001 | [3] 0 | [4] -0.011 | [5] 0.014 | [6] -0.015 | [7] 0.005 | [8] -0.015 | [9] 0.042 | [10] -0.01 | [11] 0.014 | [12] 0.022 | [13] -0.035 | [14] -0.046 | [15] -0.004 | [16] 0.013 | [17] -0.015 | [18] 0.016 | [19] 0.025 | [20] -0.005
